For the test, the system named is P388 leukemia ip, CD2F1 mice, survival T/C. Description: NCI In Vivo Anticancer Drug Screen. Data for tumor model P388 Leukemia (intraperitoneal) in CD2F1 (CDF1) mice. The conditions noted are these: T/C endpoint: median survival time, schedule: Q01DX009 (ip), vehicle: saline, higher T/C = longer survival.

The list is a part of this screen's results and no random one: it is rich in T/C values a quarter to a half above the control, in often repeated tests (any T/C) and in doses without a T/C. Other doses and runs of a compound stand elsewhere. T/C gives the treated animals as a percentage of the vehicle group. Where survival is the endpoint, the PubChem record calls one and a half times the control and up active, and a quarter to a half above the control has no call in these data; cut-offs in other NCI protocols can differ. Schedules are NCI's codes, taken here to give the interval after Q, in days (D) or hours (H), and the number of doses after X.

`CCN1CCN(CCCl)C1=O`: the T/C is, setting by setting: (dose: 50.0 mg/kg/injection) 144 % of control; (dose: 100.0 mg/kg/injection) 134 % of control.

For the origin of these results see PubChem BioAssay AID330 (DTP/NCI, 2004).
